Test results taken from the supplement of paper PMC12067093, “Discovery and optimisation of a covalent ligand for TRIM25 and its application to targeted protein ubiquitination” (Chemical Science, 2025).
The other results are listed elsewhere or left out.

Compound: CC1Cc2ccccc2N1C(=O)C1CCCN(C1)C(=O)CCl (mixture of isomers) [TRIM25 ligand 11 (diastereomer mixture)]
Test: probe-labelled cysteine peptide fold change vs DMSO (competition) (log2 fold change); higher = less target engagement (more negative = stronger competition)
Conditions: THP-1, incubation time: 4 h
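Also: competitive chemoproteomic profiling in live THP-1 cells with an iodoacetamide desthiobiotin (IA-DTB) probe, comparing probe-labelled peptide intensities in compound-treated cells against DMSO-treated controls.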

Target	probe-labelled cysteine peptide fold change (10 µM)	probe-labelled cysteine peptide fold change (50 µM)
PEBP1_P30086_133_YVWLVYEQDRPLKCDEPILSNR (UniProt P30086)	-0.475	-0.504
PGD_P52209_171_VGTGEPCCDWVGDEGAGHFVK (UniProt P52209)	0.0657	-0.00791
PHIP_Q8WWQ0_1165_SLIYKPLDGEWGTNPRDEECER (UniProt Q8WWQ0)	-0.0812	0.0131
PGAM5_Q96HS1_229_ADARQEEDSYEIFICHANVIR (UniProt Q96HS1)	-0.175	0.0271
PIGX_Q8TBF5_175_YHRPHSEDGEASIVVNNPDLLMFCDQEFPILK (UniProt Q8TBF5)	-0.0627	-0.0793
PHGDH_O43175_19_KVLISDSLDPCCR (UniProt O43175)	-0.362	-0.232
PECAM1_P16284_109_CTVIVNNK (UniProt P16284)	0.126	0.476
PGK1_P00558_316_TGQATVASGIPAGWMGLDCGPESSK (UniProt P00558)	-0.173	-0.2
PHF12_Q96QT6_315_WMCPNHIEHVVLNQK (UniProt Q96QT6)	0.202	0.00759
PHF14_O94880_518_NYLALQSYCK (UniProt O94880)	-0.0591	-0.228
PHYH_O14832_280+287_AISCHFASADCHYIDVK (UniProt O14832)	-0.0015	-0.0671
PEX6_Q13608_564_HLLLNEDPLNSCPPLMVVATTSR (UniProt Q13608)	0.0403	0.016
PFKFB2_O60825_255_TIYLCR (UniProt O60825)	0.0693	0.0795
PHKB_Q93100_1066_GTCSYLTK (UniProt Q93100)	-0.0318	0.0233
PHF5A_Q7RTV0_11_HHPDLIFCR (UniProt Q7RTV0)	0.0557	-0.0135
PGGT1B_P53609_369_QCSENVHIST (UniProt P53609)	0.226	-0.414
PEX14_O75381_342_MEVQGEEEKREDKEDEEDEEDDDVSHVDEEDCLGVQR (UniProt O75381)	-0.255	-0.116
PIGK_Q92643_280_SLCVSTPGHR (UniProt Q92643)	-0.0253	-0.052
PHGDH_O43175_111_GILVMNTPNGNSLSAAELTCGMIMCLAR (UniProt O43175)	0.00209	-0.13
PIK3C2A_O00443_418_NICGENASVK (UniProt O00443)	0.126	0.0445
PHRF1_Q9P1Y6_962_TVTCVTVVEPEAPPSPDVLQAATHR (UniProt Q9P1Y6)	-0.256	-0.149

Target	probe-labelled cysteine peptide fold change (10 µM)	probe-labelled cysteine peptide fold change (50 µM)
PHGDH_O43175_116_GILVMNTPNGNSLSAAELTCGMIMCLAR (UniProt O43175)	-0.136	0.0662
PGM3_O95394_249_LNHLCGADFVK (UniProt O95394)	-0.0509	0.106
PGM1_P36871_160_TIEEYAVCPDLK (UniProt P36871)	0.0318	-0.0781
PHKA2_P46019_238_SVIHVLPDEVEHCQSILFSMLPR (UniProt P46019)	-0.00236	-0.205
PHF8_Q9UPP1_86_AADIDLYHCPNCEVLHGPSIMK (UniProt Q9UPP1)	-0.0305	-0.0733
PHLPP1_O60346_914_NRLENVPEWVCESR (UniProt O60346)	0.0596	0.0448
PEAK3_Q6ZS72_318_GCATTGPPR (UniProt Q6ZS72)	0.0965	0.108
PGGT1B_P53609_162_ALQLEDGSFCAVPEGSENDMR (UniProt P53609)	-0.27	-0.326
PFAS_O15067_336_DVQCTGR (UniProt O15067)	-0.0475	-0.0576
PFAS_O15067_66_KLMWLFGCPLLLDDVAR (UniProt O15067)	-0.467	-0.158
PHGDH_O43175_48_EELIAELQDCEGLIVR (UniProt O43175)	-0.075	0.00347
PGM2_Q96G03_86_MNDLTIIQTTQGFCR (UniProt Q96G03)	-0.0764	-0.0732
PGM1_P36871_101_LVIGQNGILSTPAVSCIIR (UniProt P36871)	-0.133	0.0849
PGP_A6NDG6_217_FIAGTGCLVR (UniProt A6NDG6)	0.0536	-0.00184
PFKFB3_Q16875_102_QCALAALR (UniProt Q16875)	-0.0705	-0.162
PDXP_Q96GD0_171_DPECLLVATDRDPWHPLSDGSR (UniProt Q96GD0)	-0.00251	-0.0846
PEX6_Q13608_358_VVQEGDVLCVPTIGQVEILEGSPEK (UniProt Q13608)	-0.357	-0.37
PEX6_Q13608_761_AVATECSLTFLSVK (UniProt Q13608)	-0.0523	0.145
PHKA1_P46020_238_GGPQSVIHVLADEVQHCQSILNSLLPR (UniProt P46020)	-0.259	-0.0952
PGLYRP2_Q96PD5_379_EFTEAFLGCPAIHPR (UniProt Q96PD5)	0.293	0.227
PIAS4_Q8N2W9_50_ALQLVQFDCSPELFK (UniProt Q8N2W9)	-0.0242	0.0997

Target	probe-labelled cysteine peptide fold change (10 µM)	probe-labelled cysteine peptide fold change (50 µM)
PHGDH_O43175_19_VLISDSLDPCCR (UniProt O43175)	0.0299	0.00413
PGLS_O95336_78_WTLGFCDER (UniProt O95336)	-0.0642	0.0564
PES1_O00541_153_CHVQTIQLCR (UniProt O00541)	0.0494	0.219
PIAS3_Q9Y6X2_366_KPTWTCPVCDK (UniProt Q9Y6X2)	0.0845	0.132
PES1_O00541_361_SLCIGATYDVTDSR (UniProt O00541)	-0.00464	0.0571
PIGT_Q969N2_195_LLPCSSK (UniProt Q969N2)	0.0551	0.0931
PEX3_P56589_65_TCNMTVLSMLPTLR (UniProt P56589)	-0.216	-0.152
PHGDH_O43175_18_VLISDSLDPCCR (UniProt O43175)	0.394	0.234
PGD_P52209_289_CLSSLK (UniProt P52209)	0.144	0.112
PFN1_P07737_71_CSVIRDSLLQDGEFSMDLR (UniProt P07737)	-0.408	-0.21
PELP1_Q8IZL8_536_TILMCGPLIK (UniProt Q8IZL8)	0.105	0.16
PGP_A6NDG6_272_LDTDILLGATCGLK (UniProt A6NDG6)	0.166	0.102
PGM2_Q96G03_573_YYAELCAPPGNSDPEQLKK (UniProt Q96G03)	-0.192	-0.126
PEPD_P12955_158_GVNTDSGSVCR (UniProt P12955)	0.0721	-0.0568
PHGDH_O43175_111+116_KGILVMNTPNGNSLSAAELTCGMIMCLAR (UniProt O43175)	-0.19	0.131
PIK3AP1_Q6ZUJ8_358_NLTALLLTCPGALQAYSVANK (UniProt Q6ZUJ8)	-0.0195	-0.215
PGK1_P00558_380_GCITIIGGGDTATCCAK (UniProt P00558)	-0.111	0.0148
PECAM1_P16284_256_CTIQVTHLAQEFPEIIIQK (UniProt P16284)	0.063	0.1
PGK1_P00558_50_FCLDNGAK (UniProt P00558)	0.0216	0.0371
PEX7_O00628_207_IVIPAHQAEILSCDWCK (UniProt O00628)	0.0804	-0.183
PECAM1_P16284_386_SDSGTYICTAGIDK (UniProt P16284)	-0.00831	0.107

Target	probe-labelled cysteine peptide fold change (10 µM)	probe-labelled cysteine peptide fold change (50 µM)
PHF5A_Q7RTV0_75_ECTIQEK (UniProt Q7RTV0)	-0.112	-0.084
PEPD_P12955_230_EYELESLFEHYCYSR (UniProt P12955)	0.103	0.0141
PHACTR3_Q96KR7_126_TCNPDGGPR (UniProt Q96KR7)	-0.113	-0.058
PDXK_O00764_112_LVYVCDPVLGDKWDGEGSMYVPEDLLPVYK (UniProt O00764)	-0.144	-0.239
PHF21A_Q96BD5_514_VYHLDCLDPPLK (UniProt Q96BD5)	-0.079	-0.00554
PHF10_Q8WUB8_454_TCIICGQPHHEEEMMFCDMCDR (UniProt Q8WUB8)	-0.265	-0.438
PHF6_Q8IWS0_242_CMLFSSGTVQLTTTSR (UniProt Q8IWS0)	-0.0147	0.0104
PHKA1_P46020_24_LVQQTILCHQNPVTGLLPASYDQK (UniProt P46020)	0.0392	-0.000933
PHF14_O94880_754_LHYHLGCLDPPLTR (UniProt O94880)	0.0426	-0.0191
PGM2L1_Q6PCE3_125_GQVTSSCSSQR (UniProt Q6PCE3)	0.144	0.21
PECR_Q9BY49_191_SLALEWACSGIR (UniProt Q9BY49)	0.103	-0.0459
PFAS_O15067_606_RIVLVDDRECPVR (UniProt O15067)	-0.116	-0.0654
PHKG2_P15735_353_HLIDNCAFR (UniProt P15735)	-0.0131	-0.00983
PHF5A_Q7RTV0_40_CVICDSYVRPCTLVR (UniProt Q7RTV0)	0.0445	-0.0427
PHGDH_O43175_18_KVLISDSLDPCCR (UniProt O43175)	-0.318	-0.211
PFKP_Q01813_411_TNCNVAVINVGAPAAGMNAAVR (UniProt Q01813)	-0.0311	0.0468
PEPD_P12955_58_YCTDTGVLFR (UniProt P12955)	-0.000997	0.108
PHKA1_P46020_91_GLLHCMIR (UniProt P46020)	0.166	0.0455
PHF14_O94880_471_AYFHVTCAQK (UniProt O94880)	0.0464	0.0958
PGD_P52209_170_VGTGEPCCDWVGDEGAGHFVK (UniProt P52209)	0.0296	-0.0703
PGGT1B_P53609_338_WPDSHPDALHAYFGICGLSLMEESGICK (UniProt P53609)	-0.0872	0.137
